Reference: US20230257458A1
Results are given in words; binding and its absence hold for the method and conditions named. Some binding calls cover weakened binding; strength is not graded here. Sequences can lack the tags named with a protein.

Biological target: T1, IL-11R-His protein (UniProt Q14626)
T1 sequence (looked up): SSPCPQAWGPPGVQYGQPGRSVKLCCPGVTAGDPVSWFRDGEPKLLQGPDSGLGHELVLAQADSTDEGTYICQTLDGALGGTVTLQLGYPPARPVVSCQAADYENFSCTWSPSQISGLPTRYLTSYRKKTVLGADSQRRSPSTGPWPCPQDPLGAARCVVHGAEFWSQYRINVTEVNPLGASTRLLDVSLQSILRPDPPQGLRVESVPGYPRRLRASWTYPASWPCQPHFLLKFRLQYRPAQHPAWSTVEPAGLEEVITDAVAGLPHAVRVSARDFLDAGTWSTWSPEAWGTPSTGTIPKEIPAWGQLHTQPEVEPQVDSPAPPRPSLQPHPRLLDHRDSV
Test: ELISA: IL-11R-His coated, IL-11-Fc added without antibody, detection with HRP goat anti-IgG-Fc

binding: binds
B1: IL-11-Fc protein (Fc fusion, UniProt P20809 22-199, looked up, not shown: a dimerising Fc or GST)
chain: PGPPPGPPRVSPDPRAELDSTVLLTRSLLADTRQLAAQLRDKFPADGDHNLDSLPTLAMSAGALGALQLPGVLTRLRADLLSYLRHVQWLRRAGGSSLKTLEPELGTLQARLDRLLRRLQLLMSRLALPQPPPDPPAPPLAPPSSAWGGIRAAHAILGGLHLTLDWAVRGLLLLKTRL
